Results: doi:10.1101/2021.02.09.430422
Positions count from the first letter of the chain named. In names and notes the source's numbering stands. Results are given in words; binding and its absence hold for the method and conditions named. Some entries that bind do so weakly or less than the wild type. For some assays here: Sequences can lack the tags named with a protein.

B1: Nse3 (protein, UniProt Q05541 1-303)
chain: MSSIDNDSDVDLTEDLAVAKIVKENPVARKMVRYILSRGESQNSIITRNKLQSVIHEAAREENIAKPSFSKMFMDINAILYNVYGFELQGLPSKNNMNAGGNGSNSNTNKSMPEPLGHRAQKFILLNNVPHSKNFDDFKILQSAHTYEELIVTGEYIGDDIASGTSNTLESKLSTDRDLVYKGVLSVILCIVFFSKNNILHQELIKFLETFGIPSDGSKIAILNITIEDLIKSLEKREYIVRLEEKSDTDGEVISYRIGRRTQAELGLESLEKLVQEIMGLEKEQTKSLHDDIIKSIGDSYSI
B2: Smc5(N975C) (protein, UniProt Q08204 1-1093)
chain: MTSLIDLGRYVERTHHGEDTEPRSKRVKIAKPDLSSFQPGSIIKIRLQDFVTYTLTEFNLSPSLNMIIGPNGSGKSTFVCAVCLGLAGKPEYIGRSKKVEDFIKNGQDVSKIEITLKNSPNVTDIEYIDARDETIKITRIITRSKRRSDYLINDYQVSESVVKTLVAQLNIQLDNLCQFLSQERVEEFARLKSVKLLVETIRSIDASLLDVLDELRELQGNEQSLQKDLDFKKAKIVHLRQESDKLRKSVESLRDFQNKKGEIELHSQLLPYVKVKDHKEKLNIYKEEYERAKANLRAILKDKKPFANTKKTLENQVEELTEKCSLKTDEFLKAKEKINEIFEKLNTIRDEVIKKKNQNEYYRGRTKKLQATIISTKEDFLRSQEILAQTHLPEKSVFEDIDIKRKEIINKEGEIRDLISEIDAKANAINHEMRSIQRQAESKTKSLTTTDKIGILNQDQDLKEVRDAVLMVREHPEMKDKILEPPIMTVSAINAQFAAYLAQCVDYNTSKALTVVDSDSYKLFANPILDKFKVNLRELSSADTTPPVPAETVRDLGFEGYLSDFITGDKRVMKMLCQTSKIHTIPVSRRELTPAQIKKLITPRPNGKILFKRIIHGNRLVDIKQSAYGSKQVFPTDVSIKQTNFYQGSIMSNEQKIRIENEIINLKNEYNDRKSTLDALSNQKSGYRHELSELASKNDDINREAHQLNEIRKKYTMRKSTIETLREKLDQLKREARKDVSQKIKDIDDQIQQLLLKQRHLLSKMASSMKSLKNCQKELISTQILQFEAQNMDVSMNDVIGFFNEREADLKSQYEDKKKFVKEMRDTPEFQSWMREIRSYDQDTKEKLNKVAEKYEEEGNFNLSFVQDVLDKLESEIAMVNHDESAVTILDQVTAELRELEHTVPQQSKDLETIKAKLKEDHAVLEPKLDDIVSKISARFARLFNNVGSAGAVRLEKPKDYAEWKIEIMVKFRDCAPLKKLDSHTQSGGERAVSTVLYMIALQEFTSAPFRVVDEINQGMDSRNERIVHKAMVENACAENTSQYFLITPKLLTGLHYHEKMRIHCVMAGSWIPNPSEDPKMIHFGETSNYSFD

Legend:
[1] = molecular target: T1, Smc6-3C-Twin-Strep (S. cerevisiae) (UniProt Q12749); test: co-purification after co-expression
T1 sequence: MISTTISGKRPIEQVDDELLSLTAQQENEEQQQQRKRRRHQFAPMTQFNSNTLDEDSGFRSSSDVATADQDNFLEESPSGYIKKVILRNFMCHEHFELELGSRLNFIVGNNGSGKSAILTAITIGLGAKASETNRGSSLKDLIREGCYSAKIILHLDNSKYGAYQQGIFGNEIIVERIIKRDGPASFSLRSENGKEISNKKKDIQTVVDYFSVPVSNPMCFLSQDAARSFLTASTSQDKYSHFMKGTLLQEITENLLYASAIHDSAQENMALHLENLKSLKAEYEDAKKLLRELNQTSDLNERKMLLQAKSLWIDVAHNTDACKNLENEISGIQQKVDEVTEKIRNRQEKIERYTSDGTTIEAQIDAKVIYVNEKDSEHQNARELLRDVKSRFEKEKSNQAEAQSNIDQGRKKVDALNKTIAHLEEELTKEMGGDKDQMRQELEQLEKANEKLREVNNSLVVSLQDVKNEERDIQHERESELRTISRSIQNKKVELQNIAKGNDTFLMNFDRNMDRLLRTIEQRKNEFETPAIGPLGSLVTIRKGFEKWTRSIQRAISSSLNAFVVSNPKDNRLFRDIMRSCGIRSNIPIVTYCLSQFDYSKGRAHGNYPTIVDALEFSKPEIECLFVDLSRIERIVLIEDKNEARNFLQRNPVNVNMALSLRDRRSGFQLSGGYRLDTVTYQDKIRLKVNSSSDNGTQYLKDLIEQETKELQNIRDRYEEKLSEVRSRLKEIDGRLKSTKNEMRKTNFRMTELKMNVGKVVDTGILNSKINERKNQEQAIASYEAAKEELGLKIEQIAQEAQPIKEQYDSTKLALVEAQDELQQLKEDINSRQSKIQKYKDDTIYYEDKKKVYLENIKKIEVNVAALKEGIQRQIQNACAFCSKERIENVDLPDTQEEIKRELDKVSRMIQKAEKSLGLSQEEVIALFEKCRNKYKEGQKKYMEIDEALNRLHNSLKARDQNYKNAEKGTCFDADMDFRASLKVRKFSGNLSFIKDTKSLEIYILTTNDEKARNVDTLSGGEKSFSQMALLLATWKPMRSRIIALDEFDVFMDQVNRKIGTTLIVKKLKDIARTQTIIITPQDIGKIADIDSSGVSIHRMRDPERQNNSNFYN

[2] = molecular target: T2, Nse4 (S. cerevisiae) (UniProt P43124); test: cross-linking
T2 sequence: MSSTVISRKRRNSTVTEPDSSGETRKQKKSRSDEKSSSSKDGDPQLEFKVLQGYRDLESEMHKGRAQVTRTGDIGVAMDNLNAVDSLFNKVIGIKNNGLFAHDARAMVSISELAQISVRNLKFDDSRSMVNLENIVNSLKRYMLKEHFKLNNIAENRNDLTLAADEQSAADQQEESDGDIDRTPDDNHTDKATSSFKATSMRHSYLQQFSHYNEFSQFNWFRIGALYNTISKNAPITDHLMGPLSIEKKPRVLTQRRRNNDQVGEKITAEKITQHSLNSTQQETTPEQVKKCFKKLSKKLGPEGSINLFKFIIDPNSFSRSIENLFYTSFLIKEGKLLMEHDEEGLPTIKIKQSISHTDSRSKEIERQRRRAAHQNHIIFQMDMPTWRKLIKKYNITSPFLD

[3] = molecular target: T3, Smc5 (S. cerevisiae) (UniProt Q08204); test: cross-linking
T3 sequence: B2 chain with C975N

[4] = molecular target: T4, Smc6 (Twin-Strep tag removed, as in the octamer for XL-MS) (S. cerevisiae) (UniProt Q12749); test: cross-linking
T4 sequence: T1 sequence

[5] = molecular target: T1, Smc6-3C-Twin-Strep (S. cerevisiae); test: cross-linking

Row | Binder | binding [1] | binding [2] | binding [3] | binding [4] | binding [5]
1 | B1 | binds | binds | binds | binds | 
2 | B2 |  |  |  |  | binds
